Data: the supplement of paper PMC6078165
± gives the standard deviation of the averaged measurements. Values are relative to the signal before dosing, not to a vehicle control; the signal also falls without drug.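 Labels refer to human fibroblasts, largely primary: uterine (C12385, HUF), lung (H6013), bone (Hs27A), adrenal (HADF), skin (WS1), plus mammary HMF and breast cancer-associated Hs343T. Cancer lines are basal-like or mesenchymal-like triple-negative breast cancer. The paper counts as hits responses shifting over 3x the replicate standard deviation. The tissue of the other fibroblasts is not given here.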

Tested on: Hs578T
Experiment: relative JC-1 red fluorescence (viability) vs pre-drug, coculture with fibroblast (fraction); higher = more viable cancer cells
Description: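 JC-1 labelled TNBC cells cocultured 1:1 (1,500 cells each) with CellTrace Violet stained primary or stromal fibroblasts in 384-well plates in FluoroBrite medium, treated with one of 42 anticancer drugs at 0.1, 1, 10 or 100 uM. JC-1 red fluorescence (mitochondrial integrity in cancer cells only) was read by plate reader every 8 h for 72 h. Values are normalised to each well's pre-drug value. The stock of one drug was tenfold lower, so its dose labels may be too high.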

O=C(O)CCCc1ccc(N(CCCl)CCCl)cc1 [Chlorambucil]
relative JC-1 red fluorescence
Conditions	8 h	16 h	24 h	32 h	40 h	48 h	56 h	64 h	72 h
10 µM	0.892 ± 0.0097	0.818 ± 0.0099	0.76 ± 0.024	0.718 ± 0.034	0.646 ± 0.041	0.611 ± 0.043	0.574 ± 0.035	0.528 ± 0.022	0.517 ± 0.031
100 µM	0.92683 ± 0.00043	0.822 ± 0.012	0.72 ± 0.037	0.666 ± 0.057	0.602 ± 0.063	0.548 ± 0.057	0.509 ± 0.065	0.461 ± 0.05	0.439 ± 0.052

relative JC-1 red fluorescence
Conditions	8 h	16 h	24 h	32 h	40 h	48 h	56 h	64 h	72 h
10 µM, coculture fibroblast: C12385	0.786 ± 0.0082	0.721 ± 0.0066	0.685 ± 0.035	0.594 ± 0.033	0.532 ± 0.043	0.497 ± 0.051	0.466 ± 0.057	0.448 ± 0.059	0.439 ± 0.063
10 µM, coculture fibroblast: H6013	0.826 ± 0.026	0.768 ± 0.026	0.709 ± 0.031	0.669 ± 0.027	0.627 ± 0.031	0.603 ± 0.026	0.584 ± 0.022	0.57 ± 0.017	0.539 ± 0.019
10 µM, coculture fibroblast: H6019	0.787 ± 0.02	0.702 ± 0.013	0.6657 ± 0.0013	0.5683 ± 0.0017	0.525 ± 0.0063	0.507 ± 0.0074	0.475 ± 0.012	0.461 ± 0.019	0.439 ± 0.022
10 µM, coculture fibroblast: H6076	0.9 ± 0.058	0.84 ± 0.066	0.785 ± 0.044	0.768 ± 0.038	0.723 ± 0.028	0.7162 ± 0.0062	0.6982 ± 0.0042	0.688 ± 0.0086	0.687 ± 0.028
10 µM, coculture fibroblast: H6231	0.862 ± 0.054	0.773 ± 0.046	0.727 ± 0.025	0.693 ± 0.024	0.637 ± 0.032	0.615 ± 0.035	0.574 ± 0.024	0.557 ± 0.016	0.544 ± 0.0081
10 µM, coculture fibroblast: HADF	0.847 ± 0.041	0.754 ± 0.073	0.677 ± 0.075	0.615 ± 0.085	0.56 ± 0.095	0.537 ± 0.11	0.505 ± 0.12	0.486 ± 0.12	0.453 ± 0.11
10 µM, coculture fibroblast: HCFa	0.813 ± 0.012	0.72558 ± 0.00012	0.667 ± 0.02	0.619 ± 0.04	0.555 ± 0.064	0.532 ± 0.074	0.506 ± 0.075	0.499 ± 0.085	0.476 ± 0.084
10 µM, coculture fibroblast: HCPF	0.89 ± 0.078	0.829 ± 0.048	0.773 ± 0.014	0.7406 ± 0.00081	0.681 ± 0.028	0.652 ± 0.041	0.624 ± 0.05	0.581 ± 0.055	0.548 ± 0.065
10 µM, coculture fibroblast: HHSteC	0.844 ± 0.0086	0.787 ± 0.022	0.736 ± 0.015	0.674 ± 0.0083	0.62996 ± 0.00033	0.595 ± 0.0085	0.577 ± 0.0077	0.559 ± 0.014	0.537 ± 0.0084
10 µM, coculture fibroblast: HMF	0.896 ± 0.016	0.819 ± 0.02	0.735 ± 0.017	0.697 ± 0.022	0.627 ± 0.018	0.59 ± 0.02	0.548 ± 0.023	0.515 ± 0.024	0.496 ± 0.028
10 µM, coculture fibroblast: HPFa	0.878 ± 0.012	0.794 ± 0.02	0.741 ± 0.039	0.694 ± 0.041	0.656 ± 0.047	0.628 ± 0.058	0.605 ± 0.064	0.587 ± 0.078	0.549 ± 0.084
10 µM, coculture fibroblast: HUF	0.8331 ± 0.0066	0.7212 ± 0.0069	0.7 ± 0.047	0.598 ± 0.059	0.545 ± 0.089	0.512 ± 0.091	0.48 ± 0.097	0.469 ± 0.11	0.457 ± 0.11
10 µM, coculture fibroblast: Hs27A	0.924 ± 0.012	0.843 ± 0.021	0.8 ± 0.015	0.745 ± 0.018	0.685 ± 0.025	0.663 ± 0.019	0.619 ± 0.03	0.61 ± 0.028	0.558 ± 0.037
10 µM, coculture fibroblast: Hs343T	0.92 ± 0.031	0.8092 ± 0.0032	0.716 ± 0.039	0.676 ± 0.049	0.593 ± 0.048	0.554 ± 0.05	0.501 ± 0.053	0.474 ± 0.054	0.457 ± 0.049
10 µM, coculture fibroblast: WS1	0.805 ± 0.024	0.706 ± 0.078	0.659 ± 0.063	0.576 ± 0.064	0.52 ± 0.043	0.492 ± 0.043	0.45 ± 0.04	0.434 ± 0.034	0.419 ± 0.039
100 µM, coculture fibroblast: C12385	0.836 ± 0.013	0.724 ± 0.0038	0.639 ± 0.014	0.528 ± 0.017	0.46 ± 0.016	0.421 ± 0.012	0.374 ± 0.013	0.346 ± 0.011	0.331 ± 0.013
100 µM, coculture fibroblast: H6013	0.897 ± 0.014	0.8455 ± 0.006	0.779 ± 0.032	0.755 ± 0.044	0.721 ± 0.058	0.712 ± 0.074	0.692 ± 0.072	0.685 ± 0.079	0.655 ± 0.066
100 µM, coculture fibroblast: H6019	0.796 ± 0.0097	0.694 ± 0.019	0.655 ± 0.054	0.559 ± 0.061	0.51 ± 0.076	0.475 ± 0.08	0.44 ± 0.079	0.421 ± 0.083	0.392 ± 0.086
100 µM, coculture fibroblast: H6076	0.913 ± 0.012	0.836 ± 0.024	0.7765 ± 0.0052	0.758 ± 0.021	0.725 ± 0.021	0.709 ± 0.04	0.673 ± 0.035	0.664 ± 0.047	0.653 ± 0.047
100 µM, coculture fibroblast: H6231	0.898 ± 0.018	0.813 ± 0.018	0.73773 ± 4.9e-05	0.7 ± 0.012	0.636 ± 0.02	0.597 ± 0.022	0.55 ± 0.03	0.517 ± 0.033	0.493 ± 0.04
100 µM, coculture fibroblast: HADF	0.8994 ± 0.008	0.811 ± 0.034	0.755 ± 0.025	0.708 ± 0.036	0.654 ± 0.02	0.615 ± 0.039	0.569 ± 0.041	0.538 ± 0.052	0.495 ± 0.047
100 µM, coculture fibroblast: HCFa	0.891 ± 0.016	0.816 ± 0.024	0.751 ± 0.029	0.695 ± 0.048	0.635 ± 0.051	0.615 ± 0.05	0.583 ± 0.051	0.57 ± 0.057	0.529 ± 0.06
100 µM, coculture fibroblast: HCPF	0.9086 ± 0.0057	0.8313 ± 0.0063	0.7574 ± 0.0017	0.7117 ± 0.0017	0.6467 ± 0.0058	0.613 ± 0.004	0.5746 ± 0.0011	0.5179 ± 0.0046	0.4762 ± 0.0023
100 µM, coculture fibroblast: HHSteC	0.92 ± 0.058	0.827 ± 0.075	0.746 ± 0.12	0.69 ± 0.14	0.627 ± 0.17	0.589 ± 0.18	0.554 ± 0.2	0.529 ± 0.2	0.491 ± 0.19
100 µM, coculture fibroblast: HMF	0.942 ± 0.015	0.868 ± 0.015	0.789 ± 0.019	0.7469 ± 0.0059	0.6893 ± 0.0025	0.652 ± 0.012	0.595 ± 0.013	0.554 ± 0.02	0.519 ± 0.024
100 µM, coculture fibroblast: HPFa	0.928 ± 0.014	0.8474 ± 0.0034	0.749 ± 0.02	0.673 ± 0.012	0.614 ± 0.026	0.57 ± 0.02	0.523 ± 0.016	0.488 ± 0.0079	0.4427 ± 0.0018
100 µM, coculture fibroblast: HUF	0.867 ± 0.028	0.74 ± 0.037	0.697 ± 0.073	0.583 ± 0.077	0.515 ± 0.083	0.471 ± 0.087	0.43 ± 0.082	0.403 ± 0.082	0.386 ± 0.085
100 µM, coculture fibroblast: Hs27A	0.89935 ± 0.00044	0.8686 ± 0.0022	0.809 ± 0.013	0.77 ± 0.024	0.721 ± 0.035	0.711 ± 0.049	0.676 ± 0.052	0.663 ± 0.069	0.608 ± 0.07
100 µM, coculture fibroblast: Hs343T	0.9544 ± 0.0081	0.861 ± 0.016	0.7586 ± 0.0061	0.727 ± 0.019	0.648 ± 0.031	0.606 ± 0.027	0.531 ± 0.036	0.483 ± 0.035	0.443 ± 0.033
100 µM, coculture fibroblast: WS1	0.8301 ± 0.0058	0.737 ± 0.026	0.671 ± 0.033	0.565 ± 0.025	0.496 ± 0.02	0.463 ± 0.021	0.419 ± 0.024	0.396 ± 0.022	0.372 ± 0.015
